The supplement of paper PMC7666118
This is one part of the list.

Sequences of proteins named here, by UniProt entry; tags and fusion partners are left off. A change or cut given only in a name is not applied to a line headed by its entry.
UniProt Q15853: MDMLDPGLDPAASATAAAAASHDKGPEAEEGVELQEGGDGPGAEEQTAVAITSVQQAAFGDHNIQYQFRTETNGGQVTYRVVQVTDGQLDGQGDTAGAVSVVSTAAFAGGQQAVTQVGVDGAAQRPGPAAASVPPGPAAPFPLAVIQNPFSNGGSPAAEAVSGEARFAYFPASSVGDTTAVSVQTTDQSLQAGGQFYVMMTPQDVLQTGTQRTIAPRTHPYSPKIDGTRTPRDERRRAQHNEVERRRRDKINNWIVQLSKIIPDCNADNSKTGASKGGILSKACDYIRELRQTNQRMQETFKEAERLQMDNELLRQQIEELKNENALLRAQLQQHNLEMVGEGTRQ
UniProt P45974: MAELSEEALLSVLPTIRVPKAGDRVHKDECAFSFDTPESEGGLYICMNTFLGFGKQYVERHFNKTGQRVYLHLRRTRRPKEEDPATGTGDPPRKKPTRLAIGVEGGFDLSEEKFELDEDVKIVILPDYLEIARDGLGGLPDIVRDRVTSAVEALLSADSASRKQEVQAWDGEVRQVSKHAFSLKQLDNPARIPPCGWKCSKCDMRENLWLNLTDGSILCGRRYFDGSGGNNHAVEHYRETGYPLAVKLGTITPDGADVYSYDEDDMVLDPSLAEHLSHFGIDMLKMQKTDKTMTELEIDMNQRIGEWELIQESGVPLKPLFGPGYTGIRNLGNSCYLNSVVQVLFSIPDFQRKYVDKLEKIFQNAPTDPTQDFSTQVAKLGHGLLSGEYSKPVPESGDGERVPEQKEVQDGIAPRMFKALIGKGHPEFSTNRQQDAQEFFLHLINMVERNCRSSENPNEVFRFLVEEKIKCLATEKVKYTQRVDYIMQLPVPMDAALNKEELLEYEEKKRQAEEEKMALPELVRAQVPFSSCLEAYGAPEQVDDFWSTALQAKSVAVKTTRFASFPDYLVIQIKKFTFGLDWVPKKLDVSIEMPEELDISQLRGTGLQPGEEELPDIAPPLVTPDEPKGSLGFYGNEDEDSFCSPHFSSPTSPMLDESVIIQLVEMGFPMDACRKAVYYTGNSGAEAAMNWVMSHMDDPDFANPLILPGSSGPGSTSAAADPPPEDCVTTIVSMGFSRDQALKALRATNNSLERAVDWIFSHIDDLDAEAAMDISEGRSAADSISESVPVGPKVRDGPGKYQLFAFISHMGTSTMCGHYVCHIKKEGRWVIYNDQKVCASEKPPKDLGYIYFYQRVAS
UniProt Q9UDW1: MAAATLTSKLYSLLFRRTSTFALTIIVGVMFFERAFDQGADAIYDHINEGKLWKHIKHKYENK
UniProt Q12931: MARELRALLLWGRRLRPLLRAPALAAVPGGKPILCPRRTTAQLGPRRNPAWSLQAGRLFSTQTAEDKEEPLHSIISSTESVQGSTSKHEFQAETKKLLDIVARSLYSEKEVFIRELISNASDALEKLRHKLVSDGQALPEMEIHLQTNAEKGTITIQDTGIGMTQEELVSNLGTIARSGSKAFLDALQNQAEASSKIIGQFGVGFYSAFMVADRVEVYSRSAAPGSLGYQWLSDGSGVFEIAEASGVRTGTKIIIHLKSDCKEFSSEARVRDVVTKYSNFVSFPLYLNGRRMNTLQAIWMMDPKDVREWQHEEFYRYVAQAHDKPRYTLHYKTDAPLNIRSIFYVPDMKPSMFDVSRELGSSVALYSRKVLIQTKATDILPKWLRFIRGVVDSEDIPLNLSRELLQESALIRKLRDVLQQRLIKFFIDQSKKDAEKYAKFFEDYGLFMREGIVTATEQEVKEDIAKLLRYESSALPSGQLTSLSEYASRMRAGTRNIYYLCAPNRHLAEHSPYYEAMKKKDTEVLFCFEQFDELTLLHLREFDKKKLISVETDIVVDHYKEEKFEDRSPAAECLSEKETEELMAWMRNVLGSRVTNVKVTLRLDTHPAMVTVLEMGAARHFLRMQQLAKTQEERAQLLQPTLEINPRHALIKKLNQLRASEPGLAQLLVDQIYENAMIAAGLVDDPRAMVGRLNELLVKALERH
UniProt Q53GS9: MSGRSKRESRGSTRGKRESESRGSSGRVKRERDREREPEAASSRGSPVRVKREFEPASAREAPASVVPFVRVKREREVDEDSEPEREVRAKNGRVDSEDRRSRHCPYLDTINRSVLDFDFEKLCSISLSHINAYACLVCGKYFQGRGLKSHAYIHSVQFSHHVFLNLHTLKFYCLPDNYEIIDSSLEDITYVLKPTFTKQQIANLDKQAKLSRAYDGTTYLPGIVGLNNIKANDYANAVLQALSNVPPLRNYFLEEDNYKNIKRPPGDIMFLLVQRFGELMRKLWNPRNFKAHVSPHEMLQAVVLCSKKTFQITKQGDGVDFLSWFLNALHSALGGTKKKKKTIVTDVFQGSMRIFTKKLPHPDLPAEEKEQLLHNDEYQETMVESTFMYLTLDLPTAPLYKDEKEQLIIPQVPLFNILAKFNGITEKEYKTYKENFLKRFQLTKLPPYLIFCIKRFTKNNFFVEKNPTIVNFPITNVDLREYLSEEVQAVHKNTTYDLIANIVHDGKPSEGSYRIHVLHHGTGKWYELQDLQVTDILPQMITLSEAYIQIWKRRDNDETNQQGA
UniProt P10155: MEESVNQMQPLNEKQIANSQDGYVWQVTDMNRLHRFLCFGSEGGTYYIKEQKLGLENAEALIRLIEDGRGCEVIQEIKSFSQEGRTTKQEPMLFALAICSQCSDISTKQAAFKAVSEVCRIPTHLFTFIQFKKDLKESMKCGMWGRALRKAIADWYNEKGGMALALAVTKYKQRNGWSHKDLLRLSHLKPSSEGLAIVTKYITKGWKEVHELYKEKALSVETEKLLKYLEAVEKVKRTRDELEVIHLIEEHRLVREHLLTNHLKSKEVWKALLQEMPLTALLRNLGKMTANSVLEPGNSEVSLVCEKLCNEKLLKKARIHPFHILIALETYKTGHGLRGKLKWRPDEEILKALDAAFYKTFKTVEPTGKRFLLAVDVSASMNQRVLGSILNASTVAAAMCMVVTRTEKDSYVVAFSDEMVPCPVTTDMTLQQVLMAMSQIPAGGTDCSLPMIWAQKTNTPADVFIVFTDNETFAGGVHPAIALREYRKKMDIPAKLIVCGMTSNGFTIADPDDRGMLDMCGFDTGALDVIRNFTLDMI
UniProt P11172: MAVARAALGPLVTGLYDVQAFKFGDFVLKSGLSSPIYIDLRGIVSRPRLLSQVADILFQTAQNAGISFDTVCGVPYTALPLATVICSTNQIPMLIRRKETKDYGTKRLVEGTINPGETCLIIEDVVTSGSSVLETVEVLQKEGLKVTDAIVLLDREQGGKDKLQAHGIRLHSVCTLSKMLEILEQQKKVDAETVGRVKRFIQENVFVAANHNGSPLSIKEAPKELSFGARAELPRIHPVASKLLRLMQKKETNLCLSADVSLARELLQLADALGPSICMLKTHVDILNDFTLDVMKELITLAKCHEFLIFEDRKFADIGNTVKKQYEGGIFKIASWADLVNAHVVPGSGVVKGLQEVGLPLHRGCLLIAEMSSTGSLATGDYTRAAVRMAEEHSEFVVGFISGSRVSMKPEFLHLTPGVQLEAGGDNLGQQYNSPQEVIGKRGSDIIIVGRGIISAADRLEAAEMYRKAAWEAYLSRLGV
UniProt O75865, whole entry: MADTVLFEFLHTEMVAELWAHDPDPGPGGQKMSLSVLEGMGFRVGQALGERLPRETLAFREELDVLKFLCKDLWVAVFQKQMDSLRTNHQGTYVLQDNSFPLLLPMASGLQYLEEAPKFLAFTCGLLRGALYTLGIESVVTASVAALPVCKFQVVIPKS
UniProt Q7Z4L5: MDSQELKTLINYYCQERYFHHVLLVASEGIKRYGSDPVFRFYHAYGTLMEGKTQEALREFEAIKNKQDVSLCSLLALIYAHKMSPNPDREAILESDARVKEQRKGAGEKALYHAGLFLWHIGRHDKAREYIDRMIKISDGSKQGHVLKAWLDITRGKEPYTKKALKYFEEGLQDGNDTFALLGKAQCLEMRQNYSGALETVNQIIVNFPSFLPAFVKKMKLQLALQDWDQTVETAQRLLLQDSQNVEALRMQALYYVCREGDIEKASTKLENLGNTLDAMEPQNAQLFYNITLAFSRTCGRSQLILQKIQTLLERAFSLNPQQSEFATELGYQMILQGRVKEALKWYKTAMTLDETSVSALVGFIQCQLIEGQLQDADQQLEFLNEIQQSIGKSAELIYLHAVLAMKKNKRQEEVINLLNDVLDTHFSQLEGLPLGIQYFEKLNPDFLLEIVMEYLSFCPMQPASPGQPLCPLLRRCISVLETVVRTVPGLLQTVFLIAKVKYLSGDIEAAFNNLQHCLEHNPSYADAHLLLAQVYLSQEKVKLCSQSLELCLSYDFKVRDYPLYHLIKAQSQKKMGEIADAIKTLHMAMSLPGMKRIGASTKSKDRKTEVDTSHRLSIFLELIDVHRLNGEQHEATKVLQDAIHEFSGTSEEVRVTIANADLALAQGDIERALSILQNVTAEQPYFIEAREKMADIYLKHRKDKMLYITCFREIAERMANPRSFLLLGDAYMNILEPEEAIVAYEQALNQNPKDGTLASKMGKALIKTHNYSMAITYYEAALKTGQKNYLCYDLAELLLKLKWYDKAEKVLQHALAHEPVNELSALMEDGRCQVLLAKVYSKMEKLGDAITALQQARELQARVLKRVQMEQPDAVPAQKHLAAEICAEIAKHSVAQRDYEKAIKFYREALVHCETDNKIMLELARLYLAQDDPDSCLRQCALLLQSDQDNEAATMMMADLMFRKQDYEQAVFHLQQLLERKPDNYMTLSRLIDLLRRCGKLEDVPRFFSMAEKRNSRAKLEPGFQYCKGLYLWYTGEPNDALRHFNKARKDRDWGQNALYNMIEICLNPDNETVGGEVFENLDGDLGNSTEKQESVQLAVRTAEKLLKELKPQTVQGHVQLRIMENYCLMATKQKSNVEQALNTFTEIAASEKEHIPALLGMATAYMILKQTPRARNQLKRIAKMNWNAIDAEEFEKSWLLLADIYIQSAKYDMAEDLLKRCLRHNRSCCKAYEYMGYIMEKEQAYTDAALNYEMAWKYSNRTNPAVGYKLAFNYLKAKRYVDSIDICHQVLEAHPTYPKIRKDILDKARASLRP
UniProt Q9BRA2: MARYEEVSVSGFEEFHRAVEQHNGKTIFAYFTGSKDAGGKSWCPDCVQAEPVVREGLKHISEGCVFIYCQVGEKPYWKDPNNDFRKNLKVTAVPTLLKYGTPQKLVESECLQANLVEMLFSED
UniProt O95155, whole entry: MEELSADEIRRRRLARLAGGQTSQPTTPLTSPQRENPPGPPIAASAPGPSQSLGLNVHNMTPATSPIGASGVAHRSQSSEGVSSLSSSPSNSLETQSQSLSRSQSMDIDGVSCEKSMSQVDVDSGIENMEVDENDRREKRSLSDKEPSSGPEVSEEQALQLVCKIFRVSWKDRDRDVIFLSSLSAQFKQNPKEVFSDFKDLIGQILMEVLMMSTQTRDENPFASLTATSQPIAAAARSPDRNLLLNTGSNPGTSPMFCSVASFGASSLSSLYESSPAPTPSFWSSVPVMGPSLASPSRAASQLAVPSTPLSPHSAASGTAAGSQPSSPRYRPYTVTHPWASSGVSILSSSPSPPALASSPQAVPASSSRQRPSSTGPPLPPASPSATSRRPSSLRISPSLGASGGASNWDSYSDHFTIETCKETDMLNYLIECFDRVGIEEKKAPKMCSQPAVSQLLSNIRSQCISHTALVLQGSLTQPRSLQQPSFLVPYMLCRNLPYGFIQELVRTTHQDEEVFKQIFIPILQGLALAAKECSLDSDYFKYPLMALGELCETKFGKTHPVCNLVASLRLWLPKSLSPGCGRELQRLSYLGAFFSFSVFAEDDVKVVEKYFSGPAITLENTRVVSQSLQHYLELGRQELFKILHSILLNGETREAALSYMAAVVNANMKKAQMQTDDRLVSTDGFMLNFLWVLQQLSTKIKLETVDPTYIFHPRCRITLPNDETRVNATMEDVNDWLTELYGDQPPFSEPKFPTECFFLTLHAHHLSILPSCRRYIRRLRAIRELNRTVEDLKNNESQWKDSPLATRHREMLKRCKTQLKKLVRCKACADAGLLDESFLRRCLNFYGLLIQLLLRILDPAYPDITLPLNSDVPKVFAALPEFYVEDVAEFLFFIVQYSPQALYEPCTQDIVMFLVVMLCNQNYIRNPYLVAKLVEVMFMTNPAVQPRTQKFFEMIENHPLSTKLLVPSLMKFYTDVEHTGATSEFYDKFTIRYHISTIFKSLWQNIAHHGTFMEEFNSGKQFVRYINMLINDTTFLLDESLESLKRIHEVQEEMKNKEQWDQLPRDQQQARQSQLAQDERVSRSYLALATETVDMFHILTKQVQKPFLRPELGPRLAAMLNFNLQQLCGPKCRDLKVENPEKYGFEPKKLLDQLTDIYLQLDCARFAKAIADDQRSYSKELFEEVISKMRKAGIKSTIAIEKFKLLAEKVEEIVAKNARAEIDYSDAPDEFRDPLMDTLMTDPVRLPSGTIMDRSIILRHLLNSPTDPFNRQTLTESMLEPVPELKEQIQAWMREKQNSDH
UniProt Q15819: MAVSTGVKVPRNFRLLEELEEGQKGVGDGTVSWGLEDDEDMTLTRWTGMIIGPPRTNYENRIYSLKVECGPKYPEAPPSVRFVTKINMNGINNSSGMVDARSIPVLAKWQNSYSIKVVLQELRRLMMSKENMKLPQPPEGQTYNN

compound: COc1ccc(Cn2ccc3ccc(C(=O)NO)cc32)cc1; test: dose-dependent thermal stabilisation call (2D-TPP, DLPTP, 10% FDR) (binary (1 = stabilised)); higher = stabilised by the compound; conditions: system: HL-60 intact cells; concentration range 0.04-10 µM

| Target | dose-dependent thermal stabilisation call |
| --- | --- |
| UBE3A (UniProt Q05086) | inactive: 0 |
| TUBGCP3 (UniProt Q96CW5) | inactive: 0 |
| USF2 (UniProt Q15853) | inactive: 0 |
| USP1 (UniProt O94782) | inactive: 0 |
| USP5 (UniProt P45974) | inactive: 0 |
| UCKL1 (UniProt Q9NWZ5) | inactive: 0 |
| UBE2I (UniProt P63279) | inactive: 0 |
| UFM1 (UniProt P61960) | inactive: 0 |
| UFC1 (UniProt Q9Y3C8) | inactive: 0 |
| UCRC (UniProt Q9UDW1) | inactive: 0 |
| TRAP1 (UniProt Q12931) | inactive: 0 |
| UNC84B (UniProt Q9UH99) | inactive: 0 |
| USP39 (UniProt Q53GS9) | inactive: 0 |
| TROVE2 (UniProt P10155) | inactive: 0 |
| UMPS (UniProt P11172) | inactive: 0 |
| TRAPPC6A (UniProt O75865) | inactive: 0 |
| TTC21B (UniProt Q7Z4L5) | inactive: 0 |
| TRIOBP (UniProt Q9H2D6) | inactive: 0 |
| TPX2 (UniProt Q9ULW0) | inactive: 0 |

| Target | dose-dependent thermal stabilisation call |
| --- | --- |
| TSG101 (UniProt Q99816) | inactive: 0 |
| TRIM27 (UniProt P14373) | inactive: 0 |
| UBE2O (UniProt Q9C0C9) | inactive: 0 |
| TRMT61A (UniProt Q96FX7) | inactive: 0 |
| UIMC1 (UniProt Q96RL1) | inactive: 0 |
| UNC119 (UniProt Q13432) | inactive: 0 |
| TXNDC17 (UniProt Q9BRA2) | inactive: 0 |
| UBE4B (UniProt O95155) | inactive: 0 |
| UBE2E3 (UniProt Q969T4) | inactive: 0 |
| UBE2V2 (UniProt Q15819) | inactive: 0 |
| TRAPPC4 (UniProt Q9Y296) | inactive: 0 |
| TRIM28 (UniProt Q13263) | inactive: 0 |
| UBAP2L (UniProt Q14157) | inactive: 0 |
| UBTF (UniProt P17480) | inactive: 0 |
| USP32 (UniProt Q8NFA0) | inactive: 0 |
| TRMU (UniProt O75648) | inactive: 0 |
| UBE3B (UniProt Q7Z3V4) | inactive: 0 |
| UBXN4 (UniProt Q92575) | inactive: 0 |
| UBR2 (UniProt Q8IWV8) | inactive: 0 |

Given tab-delimited: part of the list above
Target	dose-dependent thermal stabilisation call
UCKL1 (UniProt Q9NWZ5)	inactive: 0
UBE2I (UniProt P63279)	inactive: 0
